These are yes or no findings as the source states them, for the method shown. Binding seen in cells or lysates may run through a third protein. A yes stands for co-enrichment or nearness to the bait. Other partners may have been found.
Target: SFB-BRCA1 (human) (UniProt P38398)
Test: affinity purification with mass spectrometry; tandem affinity purification of SFB-BRCA1 from the chromatin fraction of HEK 293T cells, before or after IR; streptavidin sepharose, biotin elution, S-protein agarose; NETN buffer, 4 °C

Protein sequences, listed by entry. Tags and fused reporters are not part of them.
UniProt P38398: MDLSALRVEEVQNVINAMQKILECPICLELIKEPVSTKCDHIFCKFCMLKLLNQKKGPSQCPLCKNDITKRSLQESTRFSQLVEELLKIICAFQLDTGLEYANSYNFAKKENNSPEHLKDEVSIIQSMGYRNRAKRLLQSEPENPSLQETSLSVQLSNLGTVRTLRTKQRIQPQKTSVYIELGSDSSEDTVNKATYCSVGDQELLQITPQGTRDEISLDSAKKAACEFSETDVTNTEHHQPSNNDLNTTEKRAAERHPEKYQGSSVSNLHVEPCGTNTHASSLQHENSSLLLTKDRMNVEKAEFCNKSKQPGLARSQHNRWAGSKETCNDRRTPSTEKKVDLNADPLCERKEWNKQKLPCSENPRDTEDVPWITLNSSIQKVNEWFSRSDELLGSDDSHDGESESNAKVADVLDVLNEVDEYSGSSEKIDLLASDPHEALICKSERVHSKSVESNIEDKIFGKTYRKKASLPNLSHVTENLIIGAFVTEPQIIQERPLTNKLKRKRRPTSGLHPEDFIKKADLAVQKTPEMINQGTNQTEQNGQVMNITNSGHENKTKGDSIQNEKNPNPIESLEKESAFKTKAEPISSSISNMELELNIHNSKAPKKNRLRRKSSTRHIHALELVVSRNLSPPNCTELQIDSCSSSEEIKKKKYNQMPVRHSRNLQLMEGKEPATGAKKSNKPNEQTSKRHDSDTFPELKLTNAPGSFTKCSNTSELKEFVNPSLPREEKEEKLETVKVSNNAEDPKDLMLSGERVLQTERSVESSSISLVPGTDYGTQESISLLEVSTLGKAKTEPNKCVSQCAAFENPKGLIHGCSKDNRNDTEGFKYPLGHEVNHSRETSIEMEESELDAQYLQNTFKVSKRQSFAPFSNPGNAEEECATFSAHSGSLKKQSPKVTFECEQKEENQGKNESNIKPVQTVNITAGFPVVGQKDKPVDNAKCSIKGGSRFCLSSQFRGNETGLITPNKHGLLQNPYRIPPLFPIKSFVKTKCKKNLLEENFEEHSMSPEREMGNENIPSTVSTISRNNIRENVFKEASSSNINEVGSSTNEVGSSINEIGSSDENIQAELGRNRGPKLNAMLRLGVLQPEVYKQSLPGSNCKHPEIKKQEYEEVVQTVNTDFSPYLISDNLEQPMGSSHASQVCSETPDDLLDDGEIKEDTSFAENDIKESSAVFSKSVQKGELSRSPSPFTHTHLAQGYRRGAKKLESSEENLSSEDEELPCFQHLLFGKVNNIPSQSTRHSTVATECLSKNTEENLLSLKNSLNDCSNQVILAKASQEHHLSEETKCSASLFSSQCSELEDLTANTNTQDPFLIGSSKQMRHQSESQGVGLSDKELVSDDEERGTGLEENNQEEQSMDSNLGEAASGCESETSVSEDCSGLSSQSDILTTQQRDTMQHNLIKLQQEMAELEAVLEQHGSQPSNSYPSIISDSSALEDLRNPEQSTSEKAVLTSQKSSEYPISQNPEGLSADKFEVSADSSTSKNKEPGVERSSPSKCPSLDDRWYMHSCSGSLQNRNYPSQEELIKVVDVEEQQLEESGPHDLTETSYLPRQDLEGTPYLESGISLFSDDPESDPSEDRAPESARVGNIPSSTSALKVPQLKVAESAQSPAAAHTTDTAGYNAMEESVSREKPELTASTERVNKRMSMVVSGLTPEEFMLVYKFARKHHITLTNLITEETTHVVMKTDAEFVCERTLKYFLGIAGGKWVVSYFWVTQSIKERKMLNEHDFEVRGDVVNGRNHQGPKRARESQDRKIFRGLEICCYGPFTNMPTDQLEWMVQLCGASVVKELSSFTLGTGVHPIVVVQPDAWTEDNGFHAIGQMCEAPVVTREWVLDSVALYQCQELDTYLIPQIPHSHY
UniProt P46736: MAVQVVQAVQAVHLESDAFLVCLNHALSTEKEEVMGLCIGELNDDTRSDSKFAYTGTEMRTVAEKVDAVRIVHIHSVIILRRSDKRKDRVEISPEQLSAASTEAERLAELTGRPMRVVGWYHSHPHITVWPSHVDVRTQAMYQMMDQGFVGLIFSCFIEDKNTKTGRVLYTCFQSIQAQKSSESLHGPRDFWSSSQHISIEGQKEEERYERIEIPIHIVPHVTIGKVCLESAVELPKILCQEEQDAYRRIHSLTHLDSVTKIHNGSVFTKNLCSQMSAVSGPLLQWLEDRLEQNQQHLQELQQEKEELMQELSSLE

binding: binds
Substance: BRCC36 (from UniProt P46736 1-316)
